These are yes or no findings as the source states them, for the method shown. Binding can be weak; no strength is given. Tags and fused reporters may be left off the sequences shown. For some assays here: In cells and extracts the contact can be indirect.

Chains of the proteins cited; added tags and fusions are not shown. Lines headed by an entry give the natural chain unless they say otherwise; changes in a name come on top.
UniProt Q8W586: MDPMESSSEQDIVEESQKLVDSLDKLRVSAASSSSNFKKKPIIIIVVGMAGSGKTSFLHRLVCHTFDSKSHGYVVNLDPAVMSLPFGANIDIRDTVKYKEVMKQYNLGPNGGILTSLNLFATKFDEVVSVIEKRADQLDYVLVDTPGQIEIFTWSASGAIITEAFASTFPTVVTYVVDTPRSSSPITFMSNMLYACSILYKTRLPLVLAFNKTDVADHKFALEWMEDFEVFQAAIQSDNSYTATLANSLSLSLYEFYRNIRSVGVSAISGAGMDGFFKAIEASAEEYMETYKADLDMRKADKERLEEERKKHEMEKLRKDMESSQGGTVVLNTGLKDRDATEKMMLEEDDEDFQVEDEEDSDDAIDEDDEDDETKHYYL
UniProt Q56XY2: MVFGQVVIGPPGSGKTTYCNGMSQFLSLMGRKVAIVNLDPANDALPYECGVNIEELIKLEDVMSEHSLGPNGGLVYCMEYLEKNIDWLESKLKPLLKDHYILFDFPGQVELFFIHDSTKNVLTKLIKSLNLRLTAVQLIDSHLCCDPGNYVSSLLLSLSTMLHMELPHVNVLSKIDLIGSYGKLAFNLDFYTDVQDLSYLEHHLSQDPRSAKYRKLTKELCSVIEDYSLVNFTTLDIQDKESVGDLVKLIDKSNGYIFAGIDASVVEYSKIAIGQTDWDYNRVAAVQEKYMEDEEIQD

Assay [1] concerns the target T1, BD-IYO (Arabidopsis thaliana) (UniProt Q8GYU3).
T1 sequence: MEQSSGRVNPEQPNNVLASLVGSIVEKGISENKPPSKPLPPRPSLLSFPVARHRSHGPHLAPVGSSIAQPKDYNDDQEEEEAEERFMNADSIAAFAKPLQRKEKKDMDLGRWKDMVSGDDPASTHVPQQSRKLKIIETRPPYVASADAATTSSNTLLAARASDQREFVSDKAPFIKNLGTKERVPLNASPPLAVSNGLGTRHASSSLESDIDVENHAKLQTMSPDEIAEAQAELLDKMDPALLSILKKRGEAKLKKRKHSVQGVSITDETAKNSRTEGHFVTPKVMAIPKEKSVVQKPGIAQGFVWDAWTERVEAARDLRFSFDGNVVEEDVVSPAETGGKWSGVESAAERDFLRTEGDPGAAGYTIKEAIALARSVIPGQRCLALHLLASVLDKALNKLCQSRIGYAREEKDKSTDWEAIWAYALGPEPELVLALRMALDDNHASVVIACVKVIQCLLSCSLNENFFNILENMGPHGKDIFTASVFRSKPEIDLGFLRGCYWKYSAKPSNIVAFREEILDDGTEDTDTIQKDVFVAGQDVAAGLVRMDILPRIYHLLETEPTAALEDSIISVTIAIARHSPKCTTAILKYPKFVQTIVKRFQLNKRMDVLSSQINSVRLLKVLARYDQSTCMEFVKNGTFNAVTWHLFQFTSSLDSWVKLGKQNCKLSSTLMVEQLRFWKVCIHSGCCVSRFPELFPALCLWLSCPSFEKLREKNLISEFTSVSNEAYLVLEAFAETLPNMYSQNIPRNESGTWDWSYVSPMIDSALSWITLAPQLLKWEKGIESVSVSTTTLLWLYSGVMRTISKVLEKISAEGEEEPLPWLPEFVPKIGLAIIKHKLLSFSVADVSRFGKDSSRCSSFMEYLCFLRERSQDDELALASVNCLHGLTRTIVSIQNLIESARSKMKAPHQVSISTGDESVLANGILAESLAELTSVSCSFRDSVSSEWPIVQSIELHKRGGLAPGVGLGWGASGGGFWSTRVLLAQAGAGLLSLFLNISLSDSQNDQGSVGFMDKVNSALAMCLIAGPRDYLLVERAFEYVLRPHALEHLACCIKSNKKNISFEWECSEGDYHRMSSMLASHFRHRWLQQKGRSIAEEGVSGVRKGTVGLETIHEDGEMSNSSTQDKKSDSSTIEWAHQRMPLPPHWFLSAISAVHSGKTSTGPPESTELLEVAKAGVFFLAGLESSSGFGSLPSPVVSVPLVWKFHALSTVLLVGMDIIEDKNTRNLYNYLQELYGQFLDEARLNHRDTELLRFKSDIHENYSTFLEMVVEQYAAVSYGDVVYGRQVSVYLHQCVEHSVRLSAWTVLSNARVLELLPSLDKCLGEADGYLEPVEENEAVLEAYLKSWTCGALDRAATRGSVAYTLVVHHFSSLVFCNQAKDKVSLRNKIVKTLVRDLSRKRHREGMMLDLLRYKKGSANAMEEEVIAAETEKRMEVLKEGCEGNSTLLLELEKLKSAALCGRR
The assay can be described thus: two-hybrid; reverse orientation: AD-GPN1 fusions (called preys) and BD-IYO (called bait) in yeast; growth on -LWAH.

Assay [2] deals with T2, AD-IYO (Arabidopsis thaliana) (UniProt Q8GYU3).
T2 sequence: T1 sequence
Description: two-hybrid; BD-GPN fusions (called preys) and AD-IYO fusions (called baits) co-transformed into S. cerevisiae AH109; growth on media lacking Ade, His, Leu and Trp (-LWAH).

Assay [3] addresses T3, AD-IYO_(ATG209) (Arabidopsis thaliana) (UniProt Q8GYU3).
T3 sequence: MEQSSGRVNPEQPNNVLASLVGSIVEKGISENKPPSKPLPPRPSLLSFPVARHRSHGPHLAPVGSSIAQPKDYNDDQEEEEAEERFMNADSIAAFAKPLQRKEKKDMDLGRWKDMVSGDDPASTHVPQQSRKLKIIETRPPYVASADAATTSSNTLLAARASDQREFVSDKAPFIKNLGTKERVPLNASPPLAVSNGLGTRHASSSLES
The assay is described as above.

The target in assay [4] is T4, AD-IYO_(NLSAB) (Arabidopsis thaliana) (UniProt Q8GYU3).
T4 sequence: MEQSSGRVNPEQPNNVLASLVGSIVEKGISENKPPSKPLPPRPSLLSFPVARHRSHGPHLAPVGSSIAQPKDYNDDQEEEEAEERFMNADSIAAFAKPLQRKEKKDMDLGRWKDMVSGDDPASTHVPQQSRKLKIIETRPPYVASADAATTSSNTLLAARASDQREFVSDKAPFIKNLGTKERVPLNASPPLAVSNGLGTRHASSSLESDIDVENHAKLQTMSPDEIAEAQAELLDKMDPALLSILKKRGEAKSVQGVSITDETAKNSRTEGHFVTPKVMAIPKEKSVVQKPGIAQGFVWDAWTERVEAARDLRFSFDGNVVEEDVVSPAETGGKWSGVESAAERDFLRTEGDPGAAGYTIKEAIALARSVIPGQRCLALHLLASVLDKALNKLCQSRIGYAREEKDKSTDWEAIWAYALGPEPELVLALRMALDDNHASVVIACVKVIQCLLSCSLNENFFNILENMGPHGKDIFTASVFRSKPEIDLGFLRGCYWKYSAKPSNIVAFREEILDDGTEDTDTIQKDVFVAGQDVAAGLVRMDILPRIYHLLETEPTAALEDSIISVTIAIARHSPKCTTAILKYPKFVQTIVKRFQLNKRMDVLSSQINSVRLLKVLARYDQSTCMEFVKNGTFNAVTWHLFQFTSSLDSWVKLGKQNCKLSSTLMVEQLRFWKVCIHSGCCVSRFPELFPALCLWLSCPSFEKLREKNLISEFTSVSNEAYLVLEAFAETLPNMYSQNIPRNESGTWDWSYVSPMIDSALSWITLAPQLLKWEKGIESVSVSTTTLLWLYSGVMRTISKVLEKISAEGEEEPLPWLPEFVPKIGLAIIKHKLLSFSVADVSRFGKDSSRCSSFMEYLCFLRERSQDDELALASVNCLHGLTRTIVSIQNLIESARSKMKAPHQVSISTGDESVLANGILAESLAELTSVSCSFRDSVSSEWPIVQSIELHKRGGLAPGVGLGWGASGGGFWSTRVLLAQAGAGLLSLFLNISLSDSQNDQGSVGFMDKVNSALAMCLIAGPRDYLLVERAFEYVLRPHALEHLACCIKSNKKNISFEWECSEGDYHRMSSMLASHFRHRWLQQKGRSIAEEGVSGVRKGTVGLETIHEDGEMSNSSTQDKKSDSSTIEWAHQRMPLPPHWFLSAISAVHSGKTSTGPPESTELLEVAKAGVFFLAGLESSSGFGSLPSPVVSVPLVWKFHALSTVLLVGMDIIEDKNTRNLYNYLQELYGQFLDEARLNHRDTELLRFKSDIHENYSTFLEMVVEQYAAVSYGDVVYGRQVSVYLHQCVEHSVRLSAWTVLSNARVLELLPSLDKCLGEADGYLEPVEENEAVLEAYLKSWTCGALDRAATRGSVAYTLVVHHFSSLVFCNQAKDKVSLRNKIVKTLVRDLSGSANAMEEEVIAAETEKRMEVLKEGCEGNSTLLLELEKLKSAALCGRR
The description is as above.

The target of assay [5] is T5, nYFP-IYO (Arabidopsis MINIYO fused to the N-terminal half of YFP) (Arabidopsis thaliana) (UniProt Q8GYU3).
T5 sequence: T1 sequence
The assay can be described thus: split reporter; BiFC: nYFP and cYFP fusions co-expressed transiently in N. benthamiana leaves; confocal microscopy two days after infiltration.

Assay [6] deals with T6, nYFP-IYO_(ATG500) (Arabidopsis thaliana) (UniProt Q8GYU3).
T6 sequence: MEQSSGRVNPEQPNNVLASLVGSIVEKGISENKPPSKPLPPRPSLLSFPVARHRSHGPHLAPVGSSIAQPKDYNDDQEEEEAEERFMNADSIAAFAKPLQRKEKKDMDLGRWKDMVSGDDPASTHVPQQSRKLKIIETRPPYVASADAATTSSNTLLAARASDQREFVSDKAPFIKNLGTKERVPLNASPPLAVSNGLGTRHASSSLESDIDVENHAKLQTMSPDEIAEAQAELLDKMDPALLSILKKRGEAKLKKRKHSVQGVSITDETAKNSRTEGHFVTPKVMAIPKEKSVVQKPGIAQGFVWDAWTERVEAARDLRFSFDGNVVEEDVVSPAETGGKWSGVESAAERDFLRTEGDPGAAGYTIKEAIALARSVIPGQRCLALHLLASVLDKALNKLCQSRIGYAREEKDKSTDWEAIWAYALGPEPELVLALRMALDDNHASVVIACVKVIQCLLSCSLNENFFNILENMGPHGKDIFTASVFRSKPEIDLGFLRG
The description is as above.

The target of assay [7] is T7, nYFP-IYO_(ΔNLSAB) (Arabidopsis thaliana) (UniProt Q8GYU3).
T7 sequence: T4 sequence
The assay is described as above.

In the case of AD-GPN1 (from UniProt Q8W586), in assay [1], the binding entry is recorded as “binds”. Still for that read-out and setting: next, AD-GPN1_(mGPN) (from UniProt Q8W586): “binds”. With BD-GPN1 (from UniProt Q8W586), the binding entry in assay [2], in assay [3] and in assay [4] was “binds” in each case. On to BD-GPN3 (Arabidopsis thaliana), for which, in assay [2], the binding entry was “no binding”.

cYFP-GPN1 (from UniProt Q8W586): the binding result in assay [5], in assay [6] and in assay [7] was “binds” throughout. Turning to cYFP-GPN2 (from UniProt Q56XY2), in assay [5], the binding result is listed as “binds”. For cYFP-GPN3 (Arabidopsis thaliana), the binding result in assay [5] is reported as “no binding”.

The values above are taken from PMC6748027.
